{
  "source": "PubChem BioAssay AID504467",
  "about": "(National Center for Advancing Translational Sciences (NCATS), 2011)",
  "note": "Screen size: about 330,000 compounds; about 7,700 (2.3%) were called active. The shares of active, inactive and inconclusive entries below differ from those in the screen. Calls come from the whole dose curve; as a rule, active = well fitted inhibition curve with a large enough effect; inconclusive = small, poorly fitted or top-dose-only effect, or effect the other way; inactive = flat fitted curve, though single readings scatter. Where the call is inconclusive, the potency comes from a doubtful curve fit. Potency is the fitted concentration of half-maximal effect.",
  "data": [
    {"assay": "qHTS screen for small molecules that inhibit ELG1-dependent DNA repair in human embryonic kidney (HEK293T) cells expressing luciferase-tagged ELG1; note: nearly all actives have a fitted effect of over 55% in size", "conditions": "HEK293T ELG1-luciferase reporter, luminescence, 16 h, DNA damage induced by 5-fluorouridine; series mostly up to 46.1 µM", "procedure,_shortened": "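In this reporter screen, reduction of luminescence relative to DMSO vehicle indicated activity. Compounds and 5-fluorouridine were added together to 2,000 cells per well, incubated for 16 hr at 37 °C, then developed with ONE-Glo.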", "values": [
      {"smiles": "Cc1csc(SCC(=O)Nc2ccccc2[N+](=O)[O-])n1", "Potency": "inconclusive: 20.6 µM [activator, single point]"},
      {"smiles": "COC(=O)c1cccc(NC(=O)CC2C(=O)NCCN2C(=O)Nc2ccccc2)c1", "note": "(configuration not stated)", "Potency": "inconclusive: 13 µM [inhibitor, partial curve, poor fit]"},
      {"smiles": "O=C(Nc1ccccc1C(=O)O)c1ccc(NC(=O)c2ccc(Br)o2)cc1", "Potency": "inactive"},
      {"smiles": "COc1ccc2c(CC(=O)NCc3cccs3)coc2c1", "Potency": "inconclusive: 29.1 µM [activator, single point]"},
      {"smiles": "O=C(NCCCN1CCOCC1)c1cc2c([nH]c3ccccc32)c(-c2cccc(Br)c2)n1", "Potency": "active: 1.64 µM"},
      {"smiles": "Cc1onc(-c2ccccc2)c1C(=O)Nc1cc(C(F)(F)F)ccc1N1CCOCC1", "Potency": "inconclusive: 6.51 µM [inhibitor, single point]"},
      {"smiles": "CN1CCSc2ccc(C(=O)Nc3ccc(Cl)cc3)cc21", "Potency": "inconclusive: 3.66 µM [activator, full curve]"},
      {"smiles": "COc1ccc(C(=O)n2c(C)c(CCO)c(=O)n2C)cc1", "Potency": "inconclusive: 13 µM [activator, partial curve]"},
      {"smiles": "O=c1c([N+](=O)[O-])c(O)c2ccccc2n1Cc1ccccc1", "Potency": "inactive"},
      {"smiles": "COc1cc(/C=C/C(=O)NNc2c(F)c(F)cc(F)c2F)ccc1OC(F)F", "Potency": "inconclusive: 29.1 µM [inhibitor, single point]"},
      {"smiles": "O=C(NCc1ccccc1)c1onc(CSc2ccccc2)c1C(=O)NCC1CC1", "Potency": "active: 23.1 µM"},
      {"smiles": "COc1ccccc1NS(=O)(=O)c1ccc(NC(=O)c2ccncc2)cc1", "Potency": "inconclusive: 23.1 µM [inhibitor, single point]"},
      {"smiles": "COC(=O)c1ccc(/C=C/C(=O)OCC(=O)Nc2cc(C)on2)cc1", "Potency": "inactive"},
      {"smiles": "CNC(=O)c1[nH]cnc1C(=O)N[C@@H](Cc1ccccc1)C(=O)OCc1ccccc1", "Potency": "inconclusive: 23.1 µM [activator, single point]"},
      {"smiles": "O=C(NCCN1CCCCC1)c1cc(Cl)ccc1Cl", "Potency": "inactive"},
      {"smiles": "O=C(Cc1nc2ccccc2[nH]1)c1ccc(Br)cc1", "Potency": "inconclusive: 29.1 µM [activator, single point]"},
      {"smiles": "CC(=O)Nc1ccc(-c2cc(-c3ccccc3)nc(-c3ccccc3)n2)cc1", "Potency": "inconclusive: 6.51 µM [inhibitor, single point]"},
      {"smiles": "Cc1c(OCC(=O)NC(Cc2ccc(Cl)cc2)C(=O)O)ccc2c3c(c(=O)oc12)CCCC3", "note": "(configuration not stated)", "Potency": "inconclusive: 0.058 µM [inhibitor, partial curve, poor fit]"},
      {"smiles": "O=C(CCC1CCCCC1=O)c1ccccc1", "note": "(configuration not stated)", "Potency": "inconclusive: 16.4 µM [activator, single point]"},
      {"smiles": "COc1ccc(Cl)cc1NC(=O)CCc1ccccc1", "Potency": "inactive"},
      {"smiles": "O=C(NCc1cccnc1)C(=O)NCC1OCCN1S(=O)(=O)c1ccccc1", "note": "(configuration not stated)", "Potency": "inconclusive: 29.1 µM [activator, partial curve, poor fit]"},
      {"smiles": "N#CC1=C(N)Oc2n[nH]c(-c3ccc(F)cc3)c2C1c1cccnc1", "note": "(configuration not stated)", "Potency": "inconclusive: 23.1 µM [activator, single point]"},
      {"smiles": "Oc1cccc(/C=N/Nc2nn3cnnc3c3ccccc23)c1", "Potency": "inactive"},
      {"smiles": "CN(Cc1cn(-c2ccccc2)nc1-c1ccc(F)cc1)C(=O)CCC(=O)O", "Potency": "inconclusive: 11.6 µM [activator, partial curve, poor fit]"},
      {"smiles": "Cc1ccc(S(=O)(=O)Nc2ccc3c(c2)C(=O)N([C@H](C)CO)C[C@H](C)[C@@H](CN(C)Cc2ccc(-c4ccccc4)cc2)O3)cc1", "Potency": "inconclusive: 16.4 µM [inhibitor, partial curve, poor fit]"},
      {"smiles": "Cc1ccc2nc(SCC(=O)Nc3ccc(C)c([N+](=O)[O-])c3)[nH]c2c1", "Potency": "inactive"},
      {"smiles": "CCC(C)c1ccc(NC(=O)COC(=O)CCNC(=O)c2ccco2)cc1", "note": "(configuration not stated)", "Potency": "inconclusive: 20.6 µM [activator, single point]"},
      {"smiles": "CCOc1ccccc1NC(=O)CN1CCC(C(=O)c2ccc(F)cc2)CC1", "Potency": "inconclusive: 13 µM [inhibitor, partial curve, poor fit]"},
      {"smiles": "CCOC(=O)c1oc2nc(CC(C)C)c3c(c2c1N)CCCC3", "Potency": "inconclusive: 20.6 µM [inhibitor, single point]"},
      {"smiles": "CCOc1ccccc1CN1CCN(C2CCSCC2)CC1CCO", "note": "(configuration not stated)", "Potency": "inactive"},
      {"smiles": "COc1ccc(NC(=O)c2nnn(Cc3cccc(F)c3)c2N)c(OC)c1", "Potency": "inactive"},
      {"smiles": "CN(C)C/C=C/C(O)(c1ccccc1)c1ccccc1", "Potency": "inconclusive: 29.1 µM [activator, single point]"},
      {"smiles": "CC(C)Cc1nc(Nc2ccccc2C#N)c2nnn(Cc3ccccc3)c2n1", "Potency": "inconclusive: 23.1 µM [inhibitor, partial curve, poor fit]"},
      {"smiles": "COC(=O)c1ccccc1NC(=O)C1CCCC1", "Potency": "inactive"},
      {"smiles": "CCn1nc(CC(C)C)cc1C(=O)N1CCCC(Nc2ccc(OC)cc2)C1", "note": "(configuration not stated)", "Potency": "inactive"},
      {"smiles": "COc1cccc(C(=O)N(C)C(C)c2nc3ccccc3s2)c1", "note": "(configuration not stated)", "Potency": "inactive"},
      {"smiles": "Cc1cccc(NC(=O)c2ccc(Cl)c(S(=O)(=O)N3CCCCCC3)c2)n1", "Potency": "inconclusive: 29.1 µM [inhibitor, single point]"},
      {"smiles": "O=C(CN1CCOCC1)N1c2ccccc2Sc2ccccc21", "Potency": "inactive"},
      {"smiles": "Cc1ccc(C)n1-c1ccc(-c2nnc3n2CCCCC3)s1", "Potency": "inactive"},
      {"smiles": "Cc1ccc(S(=O)(=O)N(Cc2cccc(C)c2)C(=O)N2CCN(C)CC2)cc1", "Potency": "inconclusive: 32.6 µM [activator, partial curve, poor fit]"},
      {"smiles": "Cn1cccc1/C=N/NC(=O)Cc1cccc2ccccc12", "Potency": "active: 13 µM"},
      {"smiles": "Cc1c(Cl)ccc2sc(NC(=O)c3ccco3)nc12", "Potency": "inconclusive: 2.59 µM [activator, full curve]"},
      {"smiles": "Cc1cc2nnc(SCC(=O)Nc3ccc(Cl)cc3)n2c(N)n1", "Potency": "inactive"},
      {"smiles": "COc1cccc2cc(-c3csc(NC(=O)CCC(=O)NCCCN4CCC(C)CC4)n3)c(=O)oc12", "Potency": "inconclusive: 2.31 µM [activator, partial curve]"},
      {"smiles": "Cn1c(NC(=O)c2ccc(F)cc2)c(-c2ccccn2)c(=O)c2ccccc21", "Potency": "inconclusive: 18.3 µM [activator, single point]"},
      {"smiles": "CCOCCCNC(=O)C1CC(=O)N(CCc2ccc(C)cc2)C1", "note": "(configuration not stated)", "Potency": "inconclusive: 29.1 µM [inhibitor, single point]"},
      {"smiles": "Cc1ccc(CNC(=O)c2ccccc2SCC(=O)NCC2CCCCC2)cc1", "Potency": "inconclusive: 18.4 µM [inhibitor, partial curve]"},
      {"smiles": "CC(C)C(NC(=O)c1ccccc1F)C(=O)Nc1nccs1", "note": "(configuration not stated)", "Potency": "inactive"},
      {"smiles": "COn1c(=O)c(-c2ccc(C)cc2)[n+]([O-])c2ccccc21", "Potency": "inconclusive: 18.3 µM [activator, single point]"},
      {"smiles": "COc1ccc(CCNC(=O)C(C)OC(=O)c2nsc(Cl)c2Cl)cc1OC", "note": "(configuration not stated)", "Potency": "inconclusive: 25.9 µM [activator, single point]"},
      {"smiles": "Cc1noc(C)c1COc1ccc(C(=O)OC(C)C(=O)Nc2ccc(S(=O)(=O)N3CCOCC3)cc2)cc1", "note": "(configuration not stated)", "Potency": "inactive"},
      {"smiles": "COc1ccccc1CCNC(=O)C(=O)Nc1cc2c3c(c1)CC(=O)N3CCC2", "Potency": "inconclusive: 25.9 µM [activator, single point]"},
      {"smiles": "CCC(=O)Nc1nc(C)c(-c2csc(Nc3cccc(O)c3)n2)s1", "Potency": "active: 2.59 µM"},
      {"smiles": "COc1cc(C(C)=O)ccc1O", "Potency": "inactive"},
      {"smiles": "COC(=O)CSc1nc2sc3c(c2c(=O)n1-c1ccccc1)CCN(C)C3", "Potency": "inactive"},
      {"smiles": "COc1cccc(Nc2nc3ccccc3c(=O)[nH]2)c1", "Potency": "inconclusive: 29.1 µM [inhibitor, single point]"},
      {"smiles": "CCOC(=O)c1c(-c2ccc(C)o2)csc1NC(=O)CN1CCC(C(N)=O)CC1", "Potency": "inactive"},
      {"smiles": "CC1CCC(NC(=O)CNC(=O)c2cccs2)CC1", "note": "(configuration not stated)", "Potency": "inconclusive: 18.3 µM [activator, partial curve]"},
      {"smiles": "Cc1ccc(/C=N/n2c(C)nc3ccccc3c2=O)s1", "Potency": "inconclusive: 25.9 µM [activator, partial curve]"},
      {"smiles": "Cc1nn(-c2ccccc2)c(C)c1NC(=O)COC(=O)c1ccccc1OC(F)F", "Potency": "inconclusive: 13 µM [activator, partial curve, poor fit]"},
      {"smiles": "COc1ccc(NC(=S)Nc2cc(C)ccn2)c(OC)c1", "Potency": "inconclusive: 4.61 µM [activator, partial curve]"},
      {"smiles": "CC(=NCc1ccco1)C1=C(O)c2ccccc2C1=O", "Potency": "inconclusive: 29.1 µM [activator, single point]"},
      {"smiles": "CCOC(=O)c1c(NC(=O)CN2CCCCC2)sc2c1CCN(C(=O)OCC)C2", "Potency": "inconclusive: 35.5 µM [inhibitor, single point]"},
      {"smiles": "Cc1ccnc(Nc2nc(-c3ccc(O)cc3O)cs2)c1", "Potency": "inactive"},
      {"smiles": "CCCn1c2ccccc2c2cnn(CC(=O)NC3CCN(Cc4ccccc4)CC3)c(=O)c21", "Potency": "inactive"},
      {"smiles": "Cc1ccc(OCc2cc(C(=O)N(C)Cc3cnn(-c4ccccc4C)c3)no2)cn1", "Potency": "inconclusive: 13 µM [inhibitor, partial curve]"},
      {"smiles": "CC[C@@]1(C(=O)OC)N[C@H](CN(C)S(=O)(=O)c2ccc(OC(F)(F)F)cc2)[C@@H]2C(=O)N(C)C(=O)[C@@H]21", "Potency": "inactive"},
      {"smiles": "COc1ccc(Nc2ncnc3c2cnn3Cc2ccccc2)cc1OC", "Potency": "inconclusive: 23.1 µM [inhibitor, single point]"},
      {"smiles": "O=C(CSc1ncccn1)Nc1cc(Cl)ccc1[N+](=O)[O-]", "Potency": "inactive"},
      {"smiles": "Cc1cccc2sc(NC(=O)C3CCN(S(=O)(=O)c4cc([N+](=O)[O-])ccc4Cl)CC3)nc12", "Potency": "inconclusive: 2.59 µM [inhibitor, full curve]"},
      {"smiles": "O=C(CSc1ccccc1F)Nc1ccc2c(c1)OCO2", "Potency": "inconclusive: 16.4 µM [activator, partial curve]"},
      {"smiles": "COC(=O)c1cnc(Oc2ccc(NC(=O)NC(=O)c3c(F)cccc3Cl)cc2)cc1C(F)(F)F", "Potency": "inactive"}
    ]}
  ]
}
